Assay results as given in patent US11510990B2, “Conjugates of fusion proteins of GLP-1 and FGF21” (BEIJING QL BIOPHARMACEUTICAL CO., LTD., priority 2020, dated 2022).
At least one read-out could not be matched to a standard name with certainty.

Experiment: Pharmacokinetic measurement in C57BL/6 mice, single subcutaneous dose, plasma ELISA
Type: in vivo
Details: 30 nmol/kg subcutaneous
Method: Each fusion protein conjugate was injected subcutaneously into C57BL/6 mice (n=3/group) once and plasma samples were collected at designed timepoints and analyzed by ELISA method. Plasma concentrations are indicated as mean values and standard error (SEM).
6-8 week old male C57BL/6 mice were administrated in a single subcutaneous dose of 30 nmol/kg of the exemplary fusion protein conjugates (Compounds 4, 9, 10, 19, 63) or the non-acylated fusion protein (i.e., Compound 3, which has the amino acid sequence identical to Compound 2 but without any conjugation) (n=3/group). Plasma samples were collected pre-dose (−5 min), 0.5 hr, 1 hr, 2 hr, 4 hr, 6 hr, 8 hr, 12 hr and 24 hr hours after the injection. For Compound 3, plasma collection timepoints were −5 min, 0.25 h, 0.5 h, 1 h, 2 h, 4 h and 6 h. The concentrations of the fusion protein conjugates or the non-acylated fusion protein in the plasma were measured by an ELISA assay which has immunoreactivities towards both C-terminal FGF21 and intact N-terminal of GLP-1. Based on the graph showing plasma concentration of each protein versus time after subcutaneous injection, the pharmacokinetic parameters were calculated by WinNonlin.
Pharmacokinetic data were analyzed by WinNonlin software. Tmax, Cmax, T1/2, AUC and MRT were calculated for each molecule.

| Molecule | T1/2 compared to non-acylated fusion protein (Compound 3) |
| --- | --- |
| Compound 4: GLP-1/FGF21 fusion polypeptide SEQ ID NO: 4 conjugated with Moiety A at 51K and 231K (conjugate, Moiety A conjugated at K51 and K231) HGEGTFTSDVSSYLEEQAAREFIAWLVRGGGGGGGSGGGGSGGGGSGGGGKHPIPDSSPLLQFGGQVRQRYLYTDDAQQTEAHLEIREDGTVGGAADQSPESLLQLRALRPGVIQILGVRTSRFLCQRPDGALYGSLHFDPEACSFRELLLEDGYNVYQSEAHGLPLHLPGQRSPHRDPAPRGPARFLPLPGLPPALPEPPGILAPQPPDVGSSDPLSLVGGSQGRSPSYKS | longer T1/2 |
| Compound 9: GLP-1/FGF21 fusion polypeptide SEQ ID NO: 9 conjugated with Moiety A at 231K (conjugate, Moiety A conjugated at K231) HGEGTFTSDVSSYLEEQAAREFIAWLVRGGGGGGGSGGGGSGGGGSGGGGSHPIPDSSPLLQFGGQVRQRYLYTDDAQQTEAHLEIREDGTVGGAADQSPESLLQLRALRPGVIQILGVRTSRFLCQRPDGALYGSLHFDPEACSFRELLLEDGYNVYQSEAHGLPLHLPGQRSPHRDPAPRGPARFLPLPGLPPALPEPPGILAPQPPDVGSSDPLSLVGGSQGRSPSYKS | longer T1/2 |
| Compound 10: GLP-1/FGF21 fusion polypeptide SEQ ID NO: 10 conjugated with Moiety A at 222K (conjugate, Moiety A conjugated at K222) HGEGTFTSDVSSYLEEQAAREFIAWLVRGGGGGGGSGGGGSGGGGSGGGGSHPIPDSSPLLQFGGQVRQRYLYTDDAQQTEAHLEIREDGTVGGAADQSPESLLQLRALRPGVIQILGVRTSRFLCQRPDGALYGSLHFDPEACSFRELLLEDGYNVYQSEAHGLPLHLPGQRSPHRDPAPRGPARFLPLPGLPPALPEPPGILAPQPPDVGSSDPLSLVGKSQGRSPSYES | longer T1/2 |
| Compound 19: GLP-1/FGF21 fusion polypeptide SEQ ID NO: 19 conjugated with Moiety A at 51K and 222K (conjugate, Moiety A conjugated at K51 and K222) HGEGTFTSDVSSYLEEQAAREFIAWLVRGGGGGGGSGGGGSGGGGSGGGGKHPIPDSSPLLQFGGQVRQRYLYTDDAQQTEAHLEIREDGTVGGAADQSPESLLQLRALRPGVIQILGVRTSRFLCQRPDGALYGSLHFDPEACSFRELLLEDGYNVYQSEAHGLPLHLPGQRSPHRDPAPRGPARFLPLPGLPPALPEPPGILAPQPPDVGSSDPLSLVGKSQGRSPSYES | longer T1/2 |
| Compound 63: GLP-1/FGF21 fusion polypeptide SEQ ID NO: 160 conjugated with Moiety B at 51C and 222C (conjugate, Moiety B conjugated at C51 and C222) HGEGTFTSDVSSYLEEQAAKEFIAWLVKGGGGGGGSGGGGSGGGGSGGGGCHPIPDSSPLLQFGGQVRQRYLYTDDAQQTEAHLEIREDGTVGGAADQSPESLLQLKALKPGVIQILGVKTSRFLCQRPDGALYGSLHFDPEACSFRELLLEDGYNVYQSEAHGLPLHLPGQKSPHRDPAPRGPARFLPLPGLPPALPEPPGILAPQPPDVGSSDPLSLVGCSQGRSPSYES | longer T1/2 |
